{
  "sequences": {"note": "The chains behind the UniProt entries cited, without tags or fusion partners. Residues count along the entry.", "UniProt Q9BYF1, 18-740": "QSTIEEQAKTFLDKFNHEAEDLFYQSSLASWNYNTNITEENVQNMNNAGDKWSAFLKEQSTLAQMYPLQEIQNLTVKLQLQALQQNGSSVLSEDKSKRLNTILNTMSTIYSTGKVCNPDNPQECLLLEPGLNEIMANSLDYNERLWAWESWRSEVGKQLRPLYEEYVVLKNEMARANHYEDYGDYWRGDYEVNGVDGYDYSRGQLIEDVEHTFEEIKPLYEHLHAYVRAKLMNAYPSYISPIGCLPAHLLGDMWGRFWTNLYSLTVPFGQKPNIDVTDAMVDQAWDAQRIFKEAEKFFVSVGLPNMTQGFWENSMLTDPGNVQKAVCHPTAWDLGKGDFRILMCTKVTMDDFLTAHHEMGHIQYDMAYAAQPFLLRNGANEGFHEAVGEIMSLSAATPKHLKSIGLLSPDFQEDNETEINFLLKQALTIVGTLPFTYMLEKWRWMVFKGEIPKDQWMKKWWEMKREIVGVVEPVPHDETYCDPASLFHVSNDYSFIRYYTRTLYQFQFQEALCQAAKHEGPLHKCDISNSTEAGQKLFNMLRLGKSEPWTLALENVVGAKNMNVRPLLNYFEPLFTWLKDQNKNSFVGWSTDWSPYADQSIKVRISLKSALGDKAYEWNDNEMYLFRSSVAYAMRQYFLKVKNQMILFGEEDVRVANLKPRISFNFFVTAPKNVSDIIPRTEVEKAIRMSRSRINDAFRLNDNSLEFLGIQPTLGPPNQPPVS"},
  "source": "paper PMC9075979",
  "about": "(Molecular Therapy, 2022)",
  "target": "SARS-CoV-2 spike RBD-ACE2 interaction (Homo sapiens, UniProt Q9BYF1)",
  "assay_type": "binding",
  "data": [
    {"smiles": "Clc1ccc(CO/N=C(\\Cn2ccnc2)c2ccc(Cl)cc2Cl)c(Cl)c1", "note": "[oxiconazole nitrate]", "values": [
      {"measurement": "reduction in bioreporter signal, method B", "value": "−4", "unit": "%"}
    ]}
  ]
}
